PubChem BioAssay AID2417 (National Center for Advancing Translational Sciences (NCATS), 2010)
The campaign covered roughly 140,000 compounds. About 4,300 (3.1%) were called active. This list was built around the results that the source calls inconclusive (neither active nor inactive); the mix of calls is not that of the screen.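 How the source made its calls: active means readout at or below -70, meaning at least 70% loss of cells showing the perinucleolar compartment, a nuclear body marking cancer cells; inconclusive means readout between -30 and a set limit; inactive means the rest.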

Test: High Content Assay for Compounds that inhibit the Assembly of the Perinucleolar Compartment;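 further: plate controls were DMSO wells for no effect and camptothecin positive control wells for full effect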
Details: PC3M PTB-GFP, PNC prevalence imaging, 16 h; at 10 µM; stronger effect = lower value
Summary of the method: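 Compounds are pinned in duplicate onto adhered PC3M cells stably expressing GFP-tagged PTB and incubated 16 h at 37 C. Cells are then fixed, nuclei stained with Hoechst, and PNC-positive cells counted.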

| SMILES | activity change (PNC), negative = inhibition |
| --- | --- |
| Cc1cc(C)nc(NS(=O)(=O)c2ccc(NC(=O)CCCN3C(=O)c4ccccc4C3=O)cc2)n1 | inconclusive: -63.5% |
| O=C(Nc1cnn(Cc2ccc(Cl)cc2)c1)c1ccc([N+](=O)[O-])cc1 | inconclusive: -62% |
| Cc1cc(Cl)ccc1NC(=O)C1CCCN1C(=O)c1cccs1 (centres undefined) | inconclusive: -42.5% |
| Cc1ccccc1Cn1nc(C)c(NC(=O)C2(C)CC2(Cl)Cl)c1C (centres undefined) | inconclusive: -37.8% |
| O=C(CN(Cc1cccs1)C(=O)CNS(=O)(=O)c1ccccc1)NCc1ccco1 | inconclusive: -48.4% |
| Cc1c(C#N)c2ncnc(-c3ccccc3)c2n1-c1ccccc1 | inconclusive: -61.6% |
| Cc1scc(C(=O)N2CCN(S(C)(=O)=O)CC2)c1-c1ccccc1 | inconclusive: -32.9% |
| Cc1ccccc1OCC(=O)OCC(=O)c1ccc(OCc2ccccc2)cc1 | inactive: 44.3% |
| C#CCn1c(=NC(=O)c2ccc(Cl)s2)sc2cccc(OC)c21 | inconclusive: -52.6% |
| O=C(/C=C/c1ccccc1)NCC(=O)N/N=C\c1cccnc1 | inconclusive: -57.4% |
| O=C1CC(N2CCCCC2)C(=O)N1c1ccccc1 (centres undefined) | active: -100% |
| CCn1c(/C=C/Nc2ccccc2)[n+](CC)c2cc(Cl)c(Cl)cc21 | active: -96% |
| Cc1cccc(NC(=O)c2ccc(S(=O)(=O)C(F)F)cc2)c1C | active: -100% |
| Cn1c(=O)[nH]c(=O)c2c1nc(CN1CCN(c3cccc(Cl)c3)CC1)n2Cc1ccccc1Cl | inconclusive: -32.1% |
| O=C(N/N=C/c1ccc(O)cc1)/C(=C/c1ccc([N+](=O)[O-])cc1)NC(=O)c1ccccc1 | active: -101% |
| O=C(O)COc1ccc(C(=O)Cc2ccc3c(c2)OCCCO3)c(O)c1 | inactive: -13.5% |
| CCOCCn1c(N2CCN(c3ccccc3)CC2)nc2c1c(=O)n(C)c(=O)n2C | inconclusive: -71.8% |
| Cc1nnc(NC(=O)CSc2nc(C(C)C)nc3ccccc23)s1 | inactive: 22% |
| CC12CC3CC(C)(C1)CC(C(=O)NC(=S)N1CCOCC1)(C3)C2 | inconclusive: -54% |
| CSc1nnc(Cn2c(=O)sc3ccccc32)n1-c1cccc(Cl)c1 | inconclusive: -59.5% |
| CCC(=O)Nc1cccc(-c2cn3ccsc3n2)c1 | inconclusive: -35.8% |
| N=c1c2c(-c3ccccc3)c(-c3ccccc3)n(Cc3ccccc3)c2ncn1CCCO | active: -90.2% |
| CC1CC(=O)N(CC(=O)NCc2ccc3c(c2)OCO3)c2ccccc2S1 (centres undefined) | inconclusive: -65.5% |

| SMILES | activity change (PNC), negative = inhibition |
| --- | --- |
| COc1ccc(C(CCNCc2ccccc2F)c2ccc(F)cc2)cc1 (centres undefined) | active: -83.9% |
| CCOC(=O)C1CCN(C(=O)c2ccc(NC(=O)C3CCCO3)cc2)CC1 (centres undefined) | inactive: 441% |
| CC(C)OC(=O)CC12CN(C)CC(CC(=O)OC(C)C)(CN(C)C1)C2=O | inactive: 45.3% |
| Cc1ccccc1OCCNC(=O)CSc1ccc(C(F)(F)F)cc1[N+](=O)[O-] | inactive: -9.38% |
| O=C(NCc1ccco1)c1sc(=S)n2c1[nH]c(=O)c1ccccc12 | inactive: 31.8% |
| COc1ccccc1CNC(=O)CCc1nc2ccccc2c(=O)[nH]1 | inconclusive: -63.7% |
| O=C1c2ccccc2C(=O)N1CCOCCN1C(=O)c2ccccc2C1=O | inconclusive: -39.8% |
| COC(=O)c1cc(OC)c(OC)cc1NC(=S)N1CCCC(CO)C1 (centres undefined) | inconclusive: -38.2% |
| COc1ccc(CNC(=O)/C=C/C(=O)O)cc1OC | inactive: 20.3% |
| CC(C)COC(=O)C1C2C=CC3(CN(C4CCCC4)C(=O)C13)O2 (centres undefined) | inconclusive: -41.8% |
| O=C(NCCOc1nc(N2CCOCC2)nc(N2CCOCC2)n1)Nc1ccccc1 | inactive: -5.61% |
| CC(C)COC(=O)n1c(=O)oc2cc(S(=O)(=O)N3CCCCC3)ccc21 | inconclusive: -40.8% |
| O=C(CSc1ccc(Cl)cc1)Nc1ccc(NC(=O)c2ccco2)cc1 | inconclusive: -37.9% |
| Cc1ccc(CNC(=O)c2ccc3c(=O)n(CCCN4CCCC4=O)c(=S)[nH]c3c2)cc1 | inactive: 31.8% |
| Brc1ccc2ncnc(NCc3ccccc3)c2c1 | inactive: 5.7% |
| CCS(=O)(=O)NCCc1cc2c(OC)ccc(OC)c2[nH]c1=O | active: -100% |
| Cc1nc(C)c(C(=O)NNS(=O)(=O)c2ccc3ccccc3c2)s1 | inconclusive: -37.4% |
| O=C(Cc1cccc2ccccc12)Nc1ccc(-c2cc3ccccc3oc2=O)cc1 | active: -82.9% |
| CSC(=Nc1ccc(Cl)cc1)N[n+]1ccccc1 | inconclusive: -37.6% |
| O=C(O)c1ccc2c(c1)OCCO2 | inactive: -17.2% |
| O=C(COc1ccc(S(=O)(=O)NCCc2ccccc2)cc1)N1CCCC1 | inconclusive: -35.1% |
| Cc1ccc([N+](=O)[O-])c(OCCN2CCNCC2)c1 | inconclusive: -30.3% |
| O=C(CSc1nnc(-c2cccs2)n1-c1ccccc1)NCc1ccco1 | inconclusive: -51.1% |

| SMILES | activity change (PNC), negative = inhibition |
| --- | --- |
| Cc1cc(-c2ccco2)n(-c2ccccc2)n1 | inconclusive: -39.6% |
| O=C(NCCN1CCOCC1)Nc1ccc(Cl)cc1 | inconclusive: -36.3% |
| O=C(Cc1coc(-c2ccc(F)cc2)n1)N1CCOCC1 | inactive: -4.96% |
| Cc1ccc(C)c(NC(=S)N2CCCCCC2)c1 | inconclusive: -54.2% |
| CCCn1c(O)c(N=Nc2ccc3ccccc3n2)c2ccccc21 | active: -115% |
| COc1ccc(C(=O)N2CCC(N3CCN(c4ccccc4)CC3)CC2)cc1OC | inconclusive: -66.2% |
| CCOc1ccc(-n2c(C)c(C(C)=O)c(C(C)=O)c2C)cc1 | inconclusive: -50.5% |
| CCOC(=O)c1ccc(N=C2S/C(=C\c3cc(C)n(-c4cccnc4)c3C)C(=O)N2C)cc1 | inconclusive: -47.6% |
| O=C(NCCc1cn2ccccc2n1)c1ccccc1F | inconclusive: -52.2% |
| CCC(=Nc1ccc(N)cc1)C1=C(O)C(C(=O)OC)C(C)(C)CC1=O (centres undefined) | inactive: 19.9% |
| CC1=C(C(=O)Nc2ccc(C)cc2C)C(c2cccs2)NC(=S)N1 (centres undefined) | inactive: -17.7% |
| O=C(OCc1cc2ccccc2[nH]c1=O)c1ccco1 | inconclusive: -37.9% |
| O=C(C1CCN(S(=O)(=O)N2CCOCC2)CC1)N1CCN(Cc2ccc3c(c2)OCO3)CC1 | inconclusive: -66.2% |
| OC(Cc1cccnc1)(Cc1cccnc1)c1cc2ccccc2[nH]1 | inconclusive: -50.7% |
| CC1=NN(c2ccccc2)C(=O)/C1=C\c1cc(C)n(-c2ccccc2)c1C | inconclusive: -35.7% |
| CCCCn1c(N)c(N(CCC(C)C)C(=O)COC(=O)c2ccco2)c(=O)[nH]c1=O | inconclusive: -52.9% |
| CCOC(=O)c1cnn(-c2nc(-c3ccc(C)cc3)cs2)c1C(F)(F)F | inconclusive: -34.4% |
| O=S(=O)(NC1CCCC1)c1ccc(S(=O)(=O)N2CCN(c3ccccc3)CC2)cc1 | inconclusive: -45.3% |
| COc1ccc(OC)c(C2C3=C(CC(C)(C)CC3=O)Nc3nnnn32)c1 (centres undefined) | inconclusive: -76.7% |
| Cc1ccc2[nH]c(=O)c(CN(Cc3ccccc3)Cc3nnnn3C3CCCC3)cc2c1 | active: -93.3% |
| Cc1ccc(S(=O)(=O)NCc2ccc(C(=O)N3CCCC3)cc2)cc1 | inactive: 49.5% |
| O=C(COC(=O)CNS(=O)(=O)c1ccc(F)c(F)c1F)Nc1ccc(OC(F)F)cc1 | inconclusive: -35.6% |
| CCOc1ccccc1C(=O)Nc1ccsc1C(=O)OC | active: -110% |

| SMILES | activity change (PNC), negative = inhibition |
| --- | --- |
| COc1cccc(-n2nnc3c(=O)n(Cc4cccc(F)c4)cnc32)c1 | inactive: -3.38% |
| CC1(C)CC(=O)C2=C(C1)NCN(Cc1ccc3c(c1)OCO3)C2 | inconclusive: -62.5% |
| O=S(=O)(NCc1csc(-c2cccnc2)n1)c1ccc(Cl)s1 | inconclusive: -46.2% |
| Cc1c(C)c2cc(Cl)c(OCc3nn[nH]n3)cc2oc1=O | active: -122% |
| Cc1ccccc1NC(=O)c1c(C)nn(-c2ccccc2)c1Cl | inactive: 9.03% |
| CCCc1cc(=O)oc2cc(OCC(=O)N(C)C)c(Cl)cc12 | inconclusive: -44.3% |
| COc1ccc(OC)c(C2=NOC(C(=O)NCCN3CCOCC3)C2)c1 (centres undefined) | inconclusive: -35% |
| CC(C)CN(C(=O)CSc1nn(-c2ccc(Cl)cc2)c(=S)s1)C1CCS(=O)(=O)C1 (centres undefined) | inactive: -17.5% |
| CC1CCCCC1NC(=O)C1Cc2ccccc2CN1S(C)(=O)=O (centres undefined) | inconclusive: -41.7% |
| O=C(NCc1ccccn1)c1ccc(COc2ccc(Cl)cc2)o1 | inconclusive: -32.4% |
| O=C(C1CC1)N1CCc2cc(Br)cc(S(=O)(=O)NCC3COc4ccccc4O3)c21 (centres undefined) | inconclusive: -41% |
| O=C(O)c1cccc(-n2nnnc2SCc2ccccn2)c1 | inconclusive: -34.2% |
| COc1ccc(/C=N/NC(=O)c2cccc(NC(=O)c3ccccc3)c2)c(C(=O)O)c1OC | inconclusive: -57.8% |
| Cc1cccc(C)c1NC(=O)C1=C(O)c2ccccc2N(C)S1(=O)=O | inconclusive: -53.5% |
| O=C(C1CC(c2ccc(F)cc2)=NO1)N1CCCCC1 (centres undefined) | inconclusive: -31.4% |
| CCn1c(SCC(=O)N/N=C/C=C/c2ccco2)nnc1-c1ccccc1 | inconclusive: -46% |
| CCC12OC(=N)C(C#N)(C1C)C(C#N)(C#N)C(c1ccccc1)O2 (centres undefined) | inconclusive: -44.5% |
| CCn1nc(CC(=O)Nc2nnc(CC(=O)N3CCCC3)s2)c2ccccc2c1=O | inconclusive: -37.1% |
| CC1CCN(C(=O)c2ccc3c(c2)OCCO3)CC1 | inconclusive: -71.5% |
| COc1ccccc1C(=O)NC(=S)/C=C1/N(C)c2ccccc2C1(C)C | inactive: 38.2% |

Some of the entries so far, tab-delimited.
SMILES	activity change (PNC), negative = inhibition
CC1=NN(c2ccccc2)C(=O)/C1=C\c1cc(C)n(-c2ccccc2)c1C	inconclusive: -35.7%
CCCCn1c(N)c(N(CCC(C)C)C(=O)COC(=O)c2ccco2)c(=O)[nH]c1=O	inconclusive: -52.9%
CCOC(=O)c1cnn(-c2nc(-c3ccc(C)cc3)cs2)c1C(F)(F)F	inconclusive: -34.4%
O=S(=O)(NC1CCCC1)c1ccc(S(=O)(=O)N2CCN(c3ccccc3)CC2)cc1	inconclusive: -45.3%
COc1ccc(OC)c(C2C3=C(CC(C)(C)CC3=O)Nc3nnnn32)c1 (centres undefined)	inconclusive: -76.7%
Cc1ccc2[nH]c(=O)c(CN(Cc3ccccc3)Cc3nnnn3C3CCCC3)cc2c1	active: -93.3%
Cc1ccc(S(=O)(=O)NCc2ccc(C(=O)N3CCCC3)cc2)cc1	inactive: 49.5%
O=C(COC(=O)CNS(=O)(=O)c1ccc(F)c(F)c1F)Nc1ccc(OC(F)F)cc1	inconclusive: -35.6%
COc1cccc(-n2nnc3c(=O)n(Cc4cccc(F)c4)cnc32)c1	inactive: -3.38%
CC1(C)CC(=O)C2=C(C1)NCN(Cc1ccc3c(c1)OCO3)C2	inconclusive: -62.5%
O=S(=O)(NCc1csc(-c2cccnc2)n1)c1ccc(Cl)s1	inconclusive: -46.2%
Cc1c(C)c2cc(Cl)c(OCc3nn[nH]n3)cc2oc1=O	active: -122%
Cc1ccccc1NC(=O)c1c(C)nn(-c2ccccc2)c1Cl	inactive: 9.03%
CCCc1cc(=O)oc2cc(OCC(=O)N(C)C)c(Cl)cc12	inconclusive: -44.3%
COc1ccc(OC)c(C2=NOC(C(=O)NCCN3CCOCC3)C2)c1 (centres undefined)	inconclusive: -35%
CC(C)CN(C(=O)CSc1nn(-c2ccc(Cl)cc2)c(=S)s1)C1CCS(=O)(=O)C1 (centres undefined)	inactive: -17.5%
CC1CCCCC1NC(=O)C1Cc2ccccc2CN1S(C)(=O)=O (centres undefined)	inconclusive: -41.7%
O=C(C1CC1)N1CCc2cc(Br)cc(S(=O)(=O)NCC3COc4ccccc4O3)c21 (centres undefined)	inconclusive: -41%
O=C(O)c1cccc(-n2nnnc2SCc2ccccn2)c1	inconclusive: -34.2%
COc1ccc(/C=N/NC(=O)c2cccc(NC(=O)c3ccccc3)c2)c(C(=O)O)c1OC	inconclusive: -57.8%
Cc1cccc(C)c1NC(=O)C1=C(O)c2ccccc2N(C)S1(=O)=O	inconclusive: -53.5%
O=C(C1CC(c2ccc(F)cc2)=NO1)N1CCCCC1 (centres undefined)	inconclusive: -31.4%
CCn1c(SCC(=O)N/N=C/C=C/c2ccco2)nnc1-c1ccccc1	inconclusive: -46%
CCC12OC(=N)C(C#N)(C1C)C(C#N)(C#N)C(c1ccccc1)O2 (centres undefined)	inconclusive: -44.5%
CCn1nc(CC(=O)Nc2nnc(CC(=O)N3CCCC3)s2)c2ccccc2c1=O	inconclusive: -37.1%
CC1CCN(C(=O)c2ccc3c(c2)OCCO3)CC1	inconclusive: -71.5%
COc1ccccc1C(=O)NC(=S)/C=C1/N(C)c2ccccc2C1(C)C	inactive: 38.2%
